{
  "sequences": {"note": "Chains of the proteins cited; added tags and fusions are not shown. Lines headed by an entry give the natural chain unless they say otherwise; changes in a name come on top.", "UniProt Q7RTX0": "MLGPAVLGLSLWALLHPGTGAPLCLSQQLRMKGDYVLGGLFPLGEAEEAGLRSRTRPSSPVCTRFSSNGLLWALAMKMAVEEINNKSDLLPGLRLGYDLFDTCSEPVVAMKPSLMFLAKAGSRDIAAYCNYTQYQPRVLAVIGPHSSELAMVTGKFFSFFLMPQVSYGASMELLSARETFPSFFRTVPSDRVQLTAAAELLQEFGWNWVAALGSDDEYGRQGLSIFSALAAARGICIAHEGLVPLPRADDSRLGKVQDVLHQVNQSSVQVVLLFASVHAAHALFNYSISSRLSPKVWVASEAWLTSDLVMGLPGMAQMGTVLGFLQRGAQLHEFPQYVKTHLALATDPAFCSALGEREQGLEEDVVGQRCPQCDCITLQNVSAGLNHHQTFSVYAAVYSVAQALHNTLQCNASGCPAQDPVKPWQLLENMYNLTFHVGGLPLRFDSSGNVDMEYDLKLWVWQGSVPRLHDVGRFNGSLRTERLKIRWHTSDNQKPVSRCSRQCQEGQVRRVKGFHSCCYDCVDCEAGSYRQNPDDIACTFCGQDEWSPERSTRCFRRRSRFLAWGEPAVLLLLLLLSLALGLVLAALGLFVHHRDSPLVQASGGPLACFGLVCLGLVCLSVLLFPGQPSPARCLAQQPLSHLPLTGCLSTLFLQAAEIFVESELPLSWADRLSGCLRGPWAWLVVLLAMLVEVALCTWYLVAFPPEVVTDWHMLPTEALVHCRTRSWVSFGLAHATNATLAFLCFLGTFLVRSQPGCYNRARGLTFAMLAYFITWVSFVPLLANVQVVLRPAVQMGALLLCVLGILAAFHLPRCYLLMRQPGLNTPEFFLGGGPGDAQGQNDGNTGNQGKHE"},
  "source": "patent US20150045610A1",
  "about": "“METHOD OF MODIFYING SPERMATOGENESIS, SPERMIOGENESIS AND/OR FERTILITY IN MAMMALS” (Monell Chemical Senses Center, priority 2012, published 2015)",
  "biological_target": "T1, humanized mhT1R3 (Homo sapiens, UniProt Q7RTX0, A109T/A120V/A176D/A197V/A198V/A228S/A231N/A248T/A280V/A282S/A302S/A412V/A417V/A46T/A537T/C375D/D124S/D249S/D250G/D364H/D419E/D470T/D491G/D88A/DEL352-352/DEL488-489/E172D/E199T/E203N/E217D/E356N/E45S/E481Q/E505D/E525K/E545Q/F540P/F555L/G168S/G205S/G311T/G314N/G355L/G360D/G414H/G438R/G439D/G463S/G50T/G542N/H261R/H278R/H281Y/H332P/I485M/I536F/INS376MLQNLSSG/K32Q/K339E/K422L/K494V/K86G/L173R/L245Q/L272V/L29F/L354S/L385Q/L433M/L458M/L483S/L71F/L74M/M151L/M315I/M318V/M31A/N285S/N386L/N532H/N68L/P112S/P246H/P335S/P416H/P420H/P441T/P60I/Q221E/Q257L/Q317R/Q330L/Q336H/Q359L/Q372R/Q418S/Q504K/Q531K/R123Q/R247D/R252Q/R291G/R30K/R357A/R443Q/R467V/R473T/R479Q/R482Q/R486Y/R498Q/R52N/R550K/R553A/R556P/R560K/R56Q/S251Q/S267K/S289H/S290H/S392A/S446A/S447E/S464P/S477T/S490P/S53Q/S559P/S58N/S67P/T195Q/T346A/T377L/T390I/T434S/T480L/T63N/V152I/V277A/V366M/V36I/V381L/V393T/V437A/V465T/V61P/W72L)",
  "T1 construct": "the extracellular domain is of mouse origin and the transmembrane and intracellular domains of human origin; mouse T1R3 extracellular domain (fusion partner replacing the human extracellular domain); expressed in transfected cells; host or cells: transgenic Line 7c mice (T1R3-/-, Gus-/-, mhT1R3+/-)",
  "T1 sequence (Q7RTX0 with tags, fused parts or gaps L29F/R30K/M31A/K32Q/V36I/E45S/A46T/G50T/R52N/S53Q/R56Q/S58N/P60I/V61P/T63N/S67P/N68L/L71F/W72L/L74M/K86G/D88A/A109T/P112S/A120V/R123Q/D124S/M151L/V152I/G168S/E172D/L173R/A176D/T195Q/A197V/A198V/E199T/E203N/G205S/E217D/Q221E/A228S/A231N/L245Q/P246H/R247D/A248T/D249S/D250G/S251Q/R252Q/Q257L/H261R/S267K/L272V/V277A/H278R/A280V/H281Y/A282S/N285S/S289H/S290H/R291G/A302S/G311T/G314N/M315I/Q317R/M318V/Q330L/H332P/P335S/Q336H/K339E/T346A/DEL352-352/L354S/G355L/E356N/R357A/Q359L/G360D/D364H/V366M/Q372R/C375D/INS376MLQNLSSG/T377L/V381L/L385Q/N386L/T390I/S392A/V393T/A412V/G414H/P416H/A417V/Q418S/D419E/P420H/K422L/L433M/T434S/V437A/G438R/G439D/P441T/R443Q/S446A/S447E/L458M/G463S/S464P/V465T/R467V/D470T/R473T/S477T/R479Q/T480L/E481Q/R482Q/L483S/I485M/R486Y/DEL488-489/S490P/D491G/K494V/R498Q/Q504K/E505D/E525K/Q531K/N532H/I536F/A537T/F540P/G542N/E545Q/R550K/R553A/F555L/R556P/S559P/R560K limits assumed)": "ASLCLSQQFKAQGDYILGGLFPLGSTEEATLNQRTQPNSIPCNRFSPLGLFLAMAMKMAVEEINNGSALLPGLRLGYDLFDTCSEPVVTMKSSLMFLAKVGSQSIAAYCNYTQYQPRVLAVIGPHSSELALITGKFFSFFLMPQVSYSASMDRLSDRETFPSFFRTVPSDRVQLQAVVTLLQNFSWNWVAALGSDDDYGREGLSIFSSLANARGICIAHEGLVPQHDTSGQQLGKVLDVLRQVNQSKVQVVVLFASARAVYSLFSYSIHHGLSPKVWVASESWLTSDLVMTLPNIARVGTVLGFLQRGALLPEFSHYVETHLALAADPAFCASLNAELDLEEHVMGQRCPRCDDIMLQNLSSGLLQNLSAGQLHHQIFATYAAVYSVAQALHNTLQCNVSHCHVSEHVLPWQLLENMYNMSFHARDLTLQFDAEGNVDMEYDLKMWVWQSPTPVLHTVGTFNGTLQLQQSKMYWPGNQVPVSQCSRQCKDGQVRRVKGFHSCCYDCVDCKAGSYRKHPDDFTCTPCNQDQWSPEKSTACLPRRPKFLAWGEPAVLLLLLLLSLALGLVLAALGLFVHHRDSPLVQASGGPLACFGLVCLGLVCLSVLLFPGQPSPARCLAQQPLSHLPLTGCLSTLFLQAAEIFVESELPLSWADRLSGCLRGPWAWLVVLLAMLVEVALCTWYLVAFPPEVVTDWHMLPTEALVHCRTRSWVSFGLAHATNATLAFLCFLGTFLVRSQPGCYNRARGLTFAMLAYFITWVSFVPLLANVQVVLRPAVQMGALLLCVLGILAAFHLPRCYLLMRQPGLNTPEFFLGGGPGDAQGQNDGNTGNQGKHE",
  "experiment": "T1R3 pharmacological block with clofibrate diet (male reproduction)",
  "assay_type": "in vivo, mouse",
  "procedure": "Matched groups (six males each) of WT and line 7c mice (expressing the chimerical mhT1R3 transgene on a T1R3/α-gustducin double-null background), 3-6 months old, were fed the indicated diets for 4-6 weeks. Each genotype was tested in two groups, one on the regular diet and one on a test diet with clofibrate. An additional group of males stayed on the test diet for another 4-6 weeks, during which time they were mated with WT females to determine whether the pharmacological intervention was effective. Then the animals were allowed to recover on the regular diet for an additional 4 weeks after the end of the treatment (half-time for total sperm turnover in mice), and again were tested for their reproductive capacity, and then their tissues were analyzed. The diets were normal chow and normal chow with clofibrate (250 and 500 mg/kg body weight daily). […] As additional controls we treated T1R3-null mice, α-gustducin-null mice, and mice expressing the humanized mhT1R3 receptor on a WT α-gustducin background with clofibrate. […] Therefore, we tested these animals only for the 4 weeks without the recovery period.\nFor histological analyses of testicular structure in these mutant animals we used Bouin's or Davidson's fixatives and paraffin sections with H&E and PAS staining for fine tissue structure analysis and where possible for immunohistochemistry (see FIGS. 2 and 3). We used appropriate antibodies to determine the cell types (e.g., Tamoo et a; 2-2. Jostpcje, Ce;; bop;. 118(5):409-14). Measurement/staining of apoptotic cells was done with commercially available kits, such as TdT TUNEL enzyme (Roche). […] Histological, immunological and cellular analyses, and genetic determination of gene transmission, were also conducted using conventional techniques.\nWe observed spermatozoa after clofibrate treatment represent cells that were able to escape the inhibition of clofibric acid, most likely due to very fast clearance and fluctuating levels in rodents. This allows some tubular cells to complete the developmental cycle. Therefore, we measured sperm concentration as an indicator of efficiency of the pharmacological block and to be able to determine the concentration that results in effective sterility. We analyzed testicular morphology, sperm production, sperm motility and sperm function in in vitro fertilization after feeding these animals with the lipid lowering drug clofibrate. We tested an acute inhibition of sperm motility and function in vitro by incubating sperm from the engineered mice (mGus−/−, mT1R3−/−, hmT1R3+) in solutions containing clofibric acid or other T1R3 inhibitors. The concentration used was similar to the one used in human treatment with fibrates (˜0.03 g/kg weight, for 3 weeks). We tested sperm motility and function in vitro of the Gα-gustducin KO mice (missing only the Gα-gustducin gene (mGus−/−)) after blocking T1R3 receptors with the rodent specific inhibitor gurmarin (3 mg/ml).\nWe placed line 7c and WT males on a diet with clofibrate (300 mg/kg body weight), or a normal diet (no clofibrate), for 1 or 2 months. In the second month the males were housed with two young WT females to determine whether the males were fertile. The line 7c males on a regular diet were fertile. […] After 1 or 2 months of clofibrate treatment, the line 7c males had substantially less sperm (i.e., about one-quarter that of the WT males), whereas line 7c males on regular feed had the same amount of sperm as WT males.",
  "note": "Entries after “also recorded” stand apart in the source; their conditions may differ. At least one compound was matched to its structure with a doubt left.",
  "data": [
    {"smiles": "CCOC(=O)C(C)(C)Oc1ccc(Cl)cc1", "note": "[clofibrate]", "values": [
      {"measurement": "histology of testis and epididymis", "setting": "WT males fed clofibrate", "result": "not in WT males"},
      {"measurement": "male fertility", "setting": "WT males on clofibrate diet, second month", "result": "two litters each"},
      {"measurement": "pathology in testis after single block", "setting": "control genotypes (T1R3-null, α-gustducin-null, mhT1R3 in WT and T1R3-null backgrounds), clofibrate alone, preliminary", "result": "no detectable pathology in testis"},
      {"measurement": "histology of testis and epididymis", "setting": "line 7c males fed clofibrate", "result": "pathological changes in testicular tubules and epididymi; also recorded: very similar to those seen in CREM-null mice"}
    ]}
  ]
}
